The list is a part of this screen's results and no random one: it gathers tests that were run many times, whatever their T/C, doses with no T/C, and many T/C values between a quarter and a half above the control. Further doses and runs are listed elsewhere. T/C: endpoint of the treated group in % of that of the vehicle group. Some entries give survivors of the animals treated and no T/C: the source files T/C as zero there, which appears to mark a toxic dose or a test without result, not a measured value. Some doses without a T/C left all or most animals alive at the check, yet need not have been tolerated: the source hardly ever lists a survival T/C far under the control, and the zero likely stands for such cases as well. Counts of survivors are from the toxicity check (mostly the fifth day) where no day follows; animals may have died later. Schedule codes are those of the source, read here as Q, the interval in days (D) or hours (H), X, the number of doses. Some molecules as drawn cover several salts, stereoisomers or complexes of the source; a dose is that of the sample tested. Some entries were tested several times; the results are listed from low to high.
System: P388 leukemia ip, CD2F1 mice, survival T/C
Assay: NCI In Vivo Anticancer Drug Screen. Data for tumor model P388 Leukemia (intraperitoneal) in CD2F1 (CDF1) mice
Settings: T/C endpoint: median survival time, higher T/C = longer survival
[1] = dose: 60.0 mg/kg/injection, schedule: Q01DX005 (ip), vehicle: saline with Tween-80
[2] = dose: 120.0 mg/kg/injection, schedule: Q01DX005 (ip), vehicle: saline with Tween-80
[3] = dose: 240.0 mg/kg/injection, schedule: Q01DX005 (ip), vehicle: saline with Tween-80
[4] = dose: 100.0 mg/kg/injection, schedule: Q01DX005 (ip), vehicle: saline with Tween-80
[5] = dose: 200.0 mg/kg/injection, schedule: Q01DX005 (ip), vehicle: saline with Tween-80

With CCc1nc(N)nc(N)c1-c1ccc2c(c1)nnn2CCc1ccccc1 the survivor count (dose: 200.0 mg/kg/injection, schedule: Q01DX005 (ip), vehicle: Klucel (hydroxypropylcellulose) (HPC)) was 3 of 6.

CC(=O)c1ccc(NC(=O)C#N)cc1 was tested, and the survivor count (dose: 30.0 mg/kg/injection, schedule: Q01DX005 (ip), vehicle: saline with Tween-80) was 0 of 6, the survivor count [1] was 0 of 6 and the survivor count [2] was 0 of 6. For the same compound, the survivor count [3] was 0 of 6.

With NNc1nnnc2c1sc1ccccc12 the survivor count (dose: 200.0 mg/kg/injection, schedule: Q01DX001 (ip), vehicle: saline with Tween-80) was 6 of 6.

For C=Cn1c([N+](=O)[O-])cnc1/C=C/c1ccc(C(=O)OCCN2CCCC2)cc1, the survivor count (dose: 200.0 mg/kg/injection, schedule: Q01DX001 (ip), vehicle: DMSO) was 0 of 6 and the survivor count (dose: 400.0 mg/kg/injection, schedule: Q01DX001 (ip), vehicle: DMSO) was 0 of 6.

In the case of COC1(NS(=O)(=O)c2ccc(C)cc2)CC1, the survivor count (dose: 240.0 mg/kg/injection, schedule: Q01DX005 (ip), vehicle: Klucel (hydroxypropylcellulose) (HPC)) is reported as 0 of 6.

CC1=C(C)C(=O)C(CCl)=[C-]C1=O.[Co].[c-]1[c-][c-][cH-][c-]1 was tested, and the survivor count [4] was 2 of 6 and the survivor count [5] was 0 of 6.

In the case of CCc1c(CC(=O)O)c2cc(C)ccc2n1Cc1ccc(Cl)cc1, the survivor count (dose: 100.0 mg/kg/injection, schedule: Q04DX003 (ip), vehicle: saline with Tween-80) is reported as 5 of 6, the survivor count (dose: 200.0 mg/kg/injection, schedule: Q04DX003 (ip), vehicle: saline with Tween-80) is reported as 3 of 6 and the survivor count (dose: 200.0 mg/kg/injection, schedule: Q04DX003 (ip), vehicle: saline) is reported as 0 of 6. The survivor count (dose: 400.0 mg/kg/injection, schedule: Q04DX003 (ip), vehicle: saline with Tween-80) was 0 of 6 and 4 of 6 and the survivor count (dose: 400.0 mg/kg/injection, schedule: Q04DX003 (ip), vehicle: saline) was 1 of 6.

For Nc1cc(=O)[nH]c(O)c1C(=O)O, the survivor count (dose: 50.0 mg/kg/injection, schedule: Q01DX009 (ip), vehicle: saline with Tween-80) was 6 of 6 and the survivor count (dose: 100.0 mg/kg/injection, schedule: Q01DX009 (ip), vehicle: saline with Tween-80) was 5 of 6.

CC(C)c1ccc([C](C)(CC(C)(C)C)[Sn]([CH3])([CH3])[CH3])cc1 (stereo unspecified) was tested, and the survivor count (dose: 12.5 mg/kg/injection, schedule: Q04DX003 (ip), vehicle: Klucel (hydroxypropylcellulose) (HPC)) was 3 of 6, the survivor count (dose: 25.0 mg/kg/injection, schedule: Q04DX003 (ip), vehicle: Klucel (hydroxypropylcellulose) (HPC)) was 1 of 6 and the survivor count (dose: 50.0 mg/kg/injection, schedule: Q04DX003 (ip), vehicle: Klucel (hydroxypropylcellulose) (HPC)) was 0 of 6.

With c1ccc2c(c1)CCC1=C2S/C(=C2/SC3=C(S2)c2ccccc2CC3)S1 the survivor count [1] was 6 of 6, the survivor count [2] was 6 of 6 and the survivor count [3] was 6 of 6.

CC12CC3(C)CC(C)(C1)CC(C(Cl)C(=O)O)(C2)C3 (stereo unspecified) was tested, and the survivor count (dose: 100.0 mg/kg/injection, schedule: Q01DX009 (ip), vehicle: suspension in saline) was 6 of 6 and the survivor count (dose: 200.0 mg/kg/injection, schedule: Q01DX009 (ip), vehicle: suspension in saline) was 2 of 6.

With COC(=O)c1cc(=O)nc(NN=C2c3ccccc3-c3ccccc32)s1 the survivor count [4] was 5 of 5 and the survivor count [5] was 3 of 5.

For OCC1OC(/C(N=Nc2ccccc2)=N\Nc2ccccc2)C(O)C1O (stereo unspecified), the survivor count (dose: 25.0 mg/kg/injection, schedule: Q01DX005 (ip), vehicle: saline with Tween-80) was 6 of 6, the survivor count (dose: 50.0 mg/kg/injection, schedule: Q01DX005 (ip), vehicle: saline with Tween-80) was 4 of 6 and the survivor count [4] was 5 of 6.

From PubChem BioAssay AID330 (DTP/NCI, 2004)
